# At least one structure is not confirmed: it was looked up by name or label, or the drawing left a doubt.
# Assay: Stability in an aqueous basic environment (UV spectra)
# Assay type: physicochemical
# Details: pH 11 buffer, dark, ambient temperature, over a period of 12 weeks
smiles,measurement,value
"Cc1cc(C)c(C(=O)P(=O)(O)C(=O)c2c(C)cc(C)cc2C)c(C)c1 [Example 1, bis(2,4,6-trimethyl-benzoyl)-phosphinic acid]",decomposition in aqueous basic solution,less than 3%
